# Results reported in PubChem BioAssay AID590 (National Center for Advancing Translational Sciences (NCATS), 2007).
# Among all 59,000 compounds or so, about 6,500 (11%) were called active. Inconclusive means that the source gave no clear call. Such entries were picked first, then a sample of the others. No stated cut-off is given here; in the data, active means max dye-equivalent concentration above about 10 nM; inconclusive means mostly about 1.1 nM to 9.6 nM; inactive means weaker than that.
# Experiment: qHTS Assay for Spectroscopic Profiling in A350 Spectral Region
# Details: Compound autofluorescence, 340/450 nm, Alexa 350 dye-equivalents; hits give high values
row,SMILES,max dye-equivalent concentration
1,COc1ccc(CNc2cc(-c3ccccc3CN(C)C)ncn2)c(OC)c1,inactive
2,CCOc1ccc(-n2c(COc3ccc(C)cc3)nnc2SCC(N)=O)cc1,inconclusive: 7.1 nM
3,c1ccc(-c2nn3c(-c4ccco4)nnc3s2)nc1,inconclusive: 2.2 nM
4,CCCc1cc(C(=O)OC)c(NC(=O)OCC)s1,inactive
5,COC(=O)[C@H](Cc1ccccc1)NC(=O)NCc1ccc(S(N)(=O)=O)cc1,inconclusive: 1.2 nM
6,CCOC(=O)N1CCN(S(=O)(=O)c2ccc(OC)c3ccccc23)CC1,inconclusive: 1.4 nM
7,CC1(C)CC(=O)C2=C(C1)NC(SCC(=O)Nc1ccccc1)=C(C#N)C2c1ccco1 (stereo unspecified),active: 83 nM
8,O=C(Nc1cccc(F)c1)N1CC[C@@]2(CCCN(C(=O)c3cccc(F)c3)C2)C1,inactive
9,CCCCc1[nH]c(=O)c(C#N)c2c1CSC(C)(C)C2,active: 160 nM
10,Cc1ccc2cc(C#N)c(NCCCNC(=O)C3CCCO3)nc2c1 (stereo unspecified),active: 2100 nM
11,Cn1c(SCc2cccc(C(F)(F)F)c2)nnc1-c1ccco1,inconclusive: 2 nM
12,COc1ccc(-n2cnnc2SC(C)c2nc3sc(C)c(C)c3c(=O)[nH]2)cc1 (stereo unspecified),active: 43 nM
13,COc1ccc(-c2nc3cnc(OC)nc3n(-c3ccc(OC)cc3)c2=O)cc1,inconclusive: 8.8 nM
14,COc1ccc(C2Nc3ccccc3C(=O)N2O)cc1OC (stereo unspecified),inconclusive: 2.5 nM
15,O=C(CSc1cccc2cccnc12)N1CCCC1,active: 86 nM
16,CCc1nnc(NC(=O)CSc2nnc(Cc3ccc(OC)cc3)o2)s1,inconclusive: 1.9 nM
17,CC(=O)Nc1cc2c(cc1C(C)=O)OCCO2,active: 41 nM
18,Cc1ccc2nc(N/N=C\c3cccc(C)n3)cc(C)c2c1,inactive
19,CCn1ncc(Br)c1C(=O)Nc1sc2c(c1C(=O)OC)CCC2,active: 25 nM
20,Cn1c(=O)c2[nH]c(CN(Cc3ccccc3)Cc3ccccc3)nc2n(C)c1=O,inconclusive: 2.9 nM
21,CCOC(=O)Cc1csc(NC(=O)c2cccs2)n1,inconclusive: 1.2 nM
22,N#CCSc1nnc2c(Cl)cc(Cl)cn12,inconclusive: 4.7 nM
23,Nc1c(N2CCCC2)cc(Cl)c2nonc12,inconclusive: 3.5 nM
24,Cn1nnc(C(O)CN2CCOCC2)n1 (stereo unspecified),inconclusive: 2.5 nM
25,COC(=O)c1ccc(CSc2ccc3nnc(-c4ccc(OC)c(OC)c4)n3n2)o1,inactive
26,Cc1csc(=O)n1CC(=O)OCc1cccc2ccccc12,inconclusive: 1.1 nM

# As entered above.
# CCOC(=O)Cc1csc(NC(=O)c2cccs2)n1 | max dye-equivalent concentration: inconclusive: 1.2 nM
# Cc1ccc2cc(C#N)c(NCCCNC(=O)C3CCCO3)nc2c1 (stereo unspecified) | max dye-equivalent concentration: active: 2100 nM
